Data published in article PMC6925222.
No constants are given. Whether binding was seen depends on the method and setting. Some entries that bind do so weakly or less than the wild type.

Target: T1, AIM2 (mouse (endogenous in BMDMs)), Q91VJ1
T1 chain: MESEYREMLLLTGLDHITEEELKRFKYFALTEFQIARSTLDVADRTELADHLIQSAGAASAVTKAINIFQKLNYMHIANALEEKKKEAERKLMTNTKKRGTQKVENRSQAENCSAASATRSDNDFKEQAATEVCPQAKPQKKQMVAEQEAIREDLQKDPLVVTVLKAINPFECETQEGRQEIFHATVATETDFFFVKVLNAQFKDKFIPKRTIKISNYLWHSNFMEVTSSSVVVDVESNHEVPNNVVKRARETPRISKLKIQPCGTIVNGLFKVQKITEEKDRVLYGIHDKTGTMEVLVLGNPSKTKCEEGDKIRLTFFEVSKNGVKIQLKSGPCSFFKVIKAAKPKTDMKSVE
Assay: nonreducing SDS-PAGE of cell lysates with immunoblot; lysates of BMDMs exposed to 8 Gy irradiation, with or without Andrographolide; separated by nonreducing SDS-PAGE and detected with antibodies against AIM2
Details: remark: other sources report otherwise

B1: AIM2, Q91VJ1 1-354 (protein)
chain: T1 chain
- binding: binds
